For one substance, binding results are on record in article PMC12032075.

Sequences of proteins named here, by UniProt entry; tags and fusion partners are left off.
UniProt Q14457: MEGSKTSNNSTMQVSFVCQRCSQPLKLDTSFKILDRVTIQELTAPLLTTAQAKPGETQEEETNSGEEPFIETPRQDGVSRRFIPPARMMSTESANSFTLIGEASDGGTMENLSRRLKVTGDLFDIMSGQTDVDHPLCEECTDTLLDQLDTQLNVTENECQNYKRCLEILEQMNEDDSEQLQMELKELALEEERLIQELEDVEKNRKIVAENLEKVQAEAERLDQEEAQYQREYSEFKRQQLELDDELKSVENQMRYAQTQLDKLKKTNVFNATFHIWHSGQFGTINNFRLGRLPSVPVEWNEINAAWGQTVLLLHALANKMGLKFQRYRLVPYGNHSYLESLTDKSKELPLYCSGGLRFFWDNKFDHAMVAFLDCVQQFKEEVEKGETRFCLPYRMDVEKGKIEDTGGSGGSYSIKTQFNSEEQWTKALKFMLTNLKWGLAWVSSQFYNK

The target of this experiment is T1, USP19 (human (endogenous in LoVo and SW480)) (UniProt O94966).
T1 sequence: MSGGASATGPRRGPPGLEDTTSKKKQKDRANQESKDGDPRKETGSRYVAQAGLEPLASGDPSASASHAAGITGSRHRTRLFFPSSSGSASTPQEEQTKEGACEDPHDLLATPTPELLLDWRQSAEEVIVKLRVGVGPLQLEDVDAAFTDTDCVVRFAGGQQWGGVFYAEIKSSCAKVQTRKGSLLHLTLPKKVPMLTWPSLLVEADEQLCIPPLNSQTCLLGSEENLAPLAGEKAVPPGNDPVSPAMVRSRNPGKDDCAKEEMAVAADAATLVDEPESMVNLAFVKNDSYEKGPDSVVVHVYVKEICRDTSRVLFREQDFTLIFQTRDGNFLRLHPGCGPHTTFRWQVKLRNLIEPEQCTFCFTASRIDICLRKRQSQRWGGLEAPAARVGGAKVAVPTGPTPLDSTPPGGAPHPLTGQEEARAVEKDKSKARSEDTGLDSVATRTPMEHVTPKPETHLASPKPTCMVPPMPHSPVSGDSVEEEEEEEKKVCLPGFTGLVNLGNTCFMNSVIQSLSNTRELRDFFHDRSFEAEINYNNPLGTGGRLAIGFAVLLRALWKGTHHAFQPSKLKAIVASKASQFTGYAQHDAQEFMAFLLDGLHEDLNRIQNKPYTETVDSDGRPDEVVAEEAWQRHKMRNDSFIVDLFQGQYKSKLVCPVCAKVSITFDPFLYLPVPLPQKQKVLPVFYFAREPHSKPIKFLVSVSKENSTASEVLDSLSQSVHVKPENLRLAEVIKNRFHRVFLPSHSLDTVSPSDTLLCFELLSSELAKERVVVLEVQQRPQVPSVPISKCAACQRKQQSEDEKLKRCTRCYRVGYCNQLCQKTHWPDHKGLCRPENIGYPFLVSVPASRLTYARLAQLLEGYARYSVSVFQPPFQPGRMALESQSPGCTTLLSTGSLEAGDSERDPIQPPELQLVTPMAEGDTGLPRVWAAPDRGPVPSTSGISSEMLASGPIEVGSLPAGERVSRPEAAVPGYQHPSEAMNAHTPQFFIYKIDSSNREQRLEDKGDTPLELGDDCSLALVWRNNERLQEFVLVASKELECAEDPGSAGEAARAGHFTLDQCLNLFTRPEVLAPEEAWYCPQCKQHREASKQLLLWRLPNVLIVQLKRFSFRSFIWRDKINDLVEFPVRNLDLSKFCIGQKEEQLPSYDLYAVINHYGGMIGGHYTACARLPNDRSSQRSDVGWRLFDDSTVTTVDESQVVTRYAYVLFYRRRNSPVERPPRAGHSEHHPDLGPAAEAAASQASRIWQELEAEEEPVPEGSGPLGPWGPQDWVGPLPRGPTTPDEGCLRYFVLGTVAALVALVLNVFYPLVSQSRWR
In words: co-IP; proteins precipitated using USP19 from LoVo and SW480 cells, Beclin1 detected; no IP method printed.

Results are given in words; binding and its absence hold for the method and conditions named. Binding seen in cells or lysates may run through a third protein. Some results given as binding are weak or reduced against the parent protein; the word gives no strength.

Regarding Beclin1 (from UniProt Q14457 1-450), the binding entry was “binds”.
